Publication PMC5040251, “The Structure of Treponema pallidum Tp0751 (Pallilysin) Reveals a Non-canonical Lipocalin Fold That Mediates Adhesion to Extracellular Matrix Components and Interactions with Host Cells” (PLoS Pathogens, 2016)
Results are given in words; binding and its absence hold for the method and conditions named. Binding calls can cover weak binding; strength is not graded here.

B1: Tp0751 synthetic peptide p10 (peptide)
peptide: RKTVSFLTRNTAISSIRRRLEVTF
notes: Tp0751 (pallilysin), Treponema pallidum subsp. pallidum; Its composition equals that of the printed scrambled peptide p10scr2; also called peptide 10; source: synthetic peptide; not shown: His6, N-terminal, kept
B2: Tp0751 synthetic peptide p6 (peptide)
peptide: QGALQHLLAGLWIQTEISPNSGDI
notes: Tp0751 (pallilysin), Treponema pallidum subsp. pallidum; its central four residues LWIQ (126-129) are printed; also called peptide 6; source: synthetic peptide; not shown: His6, N-terminal, kept
B3: Tp0751 synthetic peptide p11 (peptide)
peptide: SIRRRLEVTFESHEVIHVRAVEDV
notes: Tp0751 (pallilysin), Treponema pallidum subsp. pallidum; shares its first 10 residues (with the arginine triplet) with p10; source: synthetic peptide; not shown: His6, N-terminal, kept
B4: Tp0751 synthetic peptide p4 (peptide)
peptide: GGAAQTHTQPPVQTAMRIALWNRA
notes: Tp0751 (pallilysin), Treponema pallidum subsp. pallidum; its central four residues PVQT (98-101) are printed; also called peptide 4; source: synthetic peptide; not shown: His6, N-terminal, kept

Assays:
Test in all cases: ELISA; initial binding screen, single point: host protein immobilised in plate wells, His6-tagged synthetic peptide in solution; absorbance at 600 nm, three wells, two independent experiments; done as in refs 21, 22; both purified
[1] = biological target: plasminogen-depleted human fibrinogen (human)
[2] = biological target: human collagen type IV (human)
[3] = biological target: fibronectin isolated from human plasma (human)

Row | Binder | binding [1] | binding [2] | binding [3]
1 | B1 | binds | binds | binds
2 | B2 | binds | binds | binds
3 | FFDREHAEITFSRASVQEIFLVDS (peptide, UniProt O83732 144-167) [Tp0751 synthetic peptide p8] | no binding | no binding | no binding
4 | B3 | binds | binds | binds
5 | B4 | binds | binds | binds
